From paper PMC6136712, “Ex vivo drug sensitivity testing as a means for drug repurposing in esophageal adenocarcinoma” (PLoS ONE, 2018)
pEC50: −log10 of the molar value.

Tested on: normal esophageal epithelium cell line EACN42
Assay: FDA library drug sensitivity testing (CellTiter-Glo, 72 h), normal control cells
Format: cell-based
Settings: Homo sapiens, cell viability (ATP), max test concentration 10μM
Experimental: The normal esophageal epithelium cell line EACN42 was established in the Capobianco laboratory. The cell lines was derived from human normal epithelium and immortalized using HPV E6-E7.
Drug sensitivity testing (DST) was performed as described previously. […] Individual drugs were dissolved in 100% DMSO and tested in duplicates starting at a maximal test concentration of 10μM then over a 20,000-fold concentration range to generate dose response curves. Wells with assay buffer containing DMSO served as negative controls. 1000 exponentially growing cells were seeded per well in 384-well micro-titer plates and incubated in the presence of compounds in a humidified environment at 37°C and 5% CO2. After 72 hours of treatment, cell viability was assessed by measuring ATP levels via bioluminescence (CellTiter-Glo, Promega) according to manufactures recommendations. Interpretation of curve parameters was performed according to the modified drug sensitivity scoring (DSSmod) function developed by Swords et al. […] Given in this way, the sDSSmod incorporated information on each drug’s potency, efficacy, effect range and therapeutic index, making it possible to prioritize compounds over multiple parameters using a single numerical metric. […] All calculations and scoring routines are implemented in MatLab and additional curve fitting and statistical analyses are performed in GraphPad prism.

In the case of O=C(CCCCCCC(=O)Nc1ccccc1)NO [Vorinostat], the pEC50 was 5.36.
